Assay results reported in article PMC4484258.
Results are given in words; binding and its absence hold for the method and conditions named. Some results given as binding are weak or reduced against the parent protein; the word gives no strength.

Protein sequences, listed by entry. Tags and fused reporters are not part of them.
UniProt Q10589: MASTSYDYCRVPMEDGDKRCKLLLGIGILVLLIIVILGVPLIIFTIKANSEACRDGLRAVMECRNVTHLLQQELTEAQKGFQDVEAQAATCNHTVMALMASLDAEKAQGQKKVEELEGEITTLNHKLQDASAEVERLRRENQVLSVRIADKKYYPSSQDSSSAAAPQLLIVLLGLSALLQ
UniProt P03165: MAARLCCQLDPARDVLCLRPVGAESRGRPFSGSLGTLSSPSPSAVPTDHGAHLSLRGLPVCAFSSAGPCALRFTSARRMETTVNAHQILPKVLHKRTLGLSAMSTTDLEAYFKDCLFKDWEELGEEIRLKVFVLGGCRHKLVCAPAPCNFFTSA

Biological target: pBIND-BST-2 IHA (BST-2 fused to the GAL4 DNA-binding domain) (human) (UniProt Q10589)
Assay: two-hybrid; CheckMate mammalian two-hybrid in hepatic L02 cells: pBIND-BST-2 IHA, pACT-HBx and pG5luc, 500 ng each; firefly luciferase normalised by Renilla luciferase after 48 h

**Q.** For “pACT-HBx (HBx fused to the VP16 activation domain) (from UniProt P03165 1-154)”, which binding is on record?
**A.** binds
